PubChem BioAssay AID1671195 | Yale University – 2021
The whole screen tested about 22,000 reagents; shown is an unselected part. Over the whole deposit, about 1,510 (6.9%) were called active. 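Active includes knockdowns raising or lowering LDL uptake; positive z-scores mean more uptake, negative mean less.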

Purpose: 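Genes whose knockdown alters LDL uptake in liver cancer cells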 (primary screen)
System: human Huh7 hepatoma cells
Knock-down reagent: siRNA pool against human genes, 18 nM
Timing: about 2 to 2.5 days of knockdown, then 8 h LDL uptake
Conditions: DiI-labelled LDL at 30 µg/ml for 8 h, in lipoprotein-deficient serum medium
Detection: 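Per-cell DiI-LDL intensity by automated imaging; well means scaled to the plate median and given as a robust z-score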
Scale: robust z-score: higher = more LDL uptake after knockdown
Call rule: 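a gene counts as active if at least two replicate z-scores exceed ±2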

| gene knocked down | robust z-score, replicate 1 | robust z-score, replicate 2 | robust z-score, replicate 3 | call |
| --- | --- | --- | --- | --- |
| YARS2 (tyrosyl-tRNA synthetase 2) | 0.531 | 0.251 | 0.107 | inactive |
| SOCS5 (suppressor of cytokine signaling 5) | -2.09 | -1.64 | -2.38 | active |
| PIANP (PILR alpha associated neural protein) | -0.645 | -1.13 | 0.0471 | inactive |
| ATAD5 (ATPase family AAA domain containing 5) | 1.29 | 0.6 | 0.408 | inactive |
| FLJ44674 (retired record) | -1.32 | -1.28 | -1.01 | inactive |
| PTPRK (protein tyrosine phosphatase receptor type K) | -0.761 | -0.781 | -0.654 | inactive |
| PLCB2 (phospholipase C beta 2) | -1.42 | -0.765 | -0.413 | inactive |
| ACE (angiotensin I converting enzyme) | -0.27 | -1.03 | -1.4 | inactive |
| OR11H13P | -0.651 | -1.31 | -0.711 | inactive |
| MYLK2 (myosin light chain kinase 2) | -0.123 | 1.04 | -0.555 | inactive |
| WDR55 (WD repeat domain 55) | 0.231 | 0.898 | -0.728 | inactive |
| ABI3BP (ABI family member 3 binding protein) | -0.749 | 0.00906 | -0.564 | inactive |
| AIFM3 (AIF family member 3) | -0.754 | 0.257 | -0.21 | inactive |
| DOK4 (docking protein 4) | 2.05 | 2.69 | 0.718 | active |
| FCGR2B (Fc gamma receptor IIb) | -1.63 | -1.3 | -1.35 | inactive |
| FAM50B (family with sequence similarity 50 member B) | 0.856 | 1.52 | -0.296 | inactive |
| DLX4 (distal-less homeobox 4) | -0.972 | -0.15 | 0.183 | inactive |
| LOC401922 (retired record) | 0.39 | -2.65 | 0.229 | inactive |
| KBTBD6 (kelch repeat and BTB domain containing 6) | -0.865 | -0.415 | -0.569 | inactive |
| CDIPT (CDP-diacylglycerol--inositol 3-phosphatidyltransferase) | 0.516 | -0.0433 | 0.455 | inactive |
| LRRC3B (leucine rich repeat containing 3B) | 0.544 | 0.784 | 0.714 | inactive |
| MAP3K3 (mitogen-activated protein kinase kinase kinase 3) | 0.687 | 0.178 | 0.431 | inactive |
| ANO5 (anoctamin 5) | -0.643 | -0.816 | -0.611 | inactive |
| LOC389777 (retired record) | -1.35 | -1.04 | -1.56 | inactive |
| NPHP1 (nephrocystin 1) | 0.198 | -0.139 | -0.286 | inactive |
| PLA2G4F (phospholipase A2 group IVF) | -0.607 | -0.72 | -0.601 | inactive |
| CHST10 (carbohydrate sulfotransferase 10) | 0.189 | 0.188 | -0.294 | inactive |
| RHOT2 (ras homolog family member T2) | 0.875 | 0.545 | 2.24 | inactive |
| NXT2 (nuclear transport factor 2 like export factor 2) | -0.804 | 0.357 | -1.33 | inactive |
| MUS81 (MUS81 structure-specific endonuclease subunit) | -0.0931 | -0.433 | -0.666 | inactive |
| LOC197317 (retired record) | 0.943 | -0.203 | 0.404 | inactive |
| ZNF813 (zinc finger protein 813) | 0.991 | 0.503 | 0.462 | inactive |
| MFAP1 (microfibril associated protein 1) | 2.28 | 2.12 | 1.84 | active |
| HEXA (hexosaminidase subunit alpha) | -0.441 | -0.0311 | -0.313 | inactive |
| CENPF (centromere protein F) | -0.735 | -1.68 | -1.5 | inactive |
| NTN3 (netrin 3) | 0.286 | 1.32 | -0.169 | inactive |
| UBN1 (ubinuclein 1) | 1.46 | 0.18 | 1.55 | inactive |
| SGPP2 (sphingosine-1-phosphate phosphatase 2) | -0.888 | -1.49 | -2.03 | inactive |
| PSG8-AS1 (PSG8 antisense RNA 1) | 0.894 | 0.74 | 1.23 | inactive |
| LOC389031 (retired record) | -1.67 | -1.98 | -1.7 | inactive |
| SIGLEC8 (sialic acid binding Ig like lectin 8) | -1.05 | -1.25 | -0.921 | inactive |
| THAP3 (THAP domain containing 3) | 0.199 | 0.234 | 0.325 | inactive |
| LOC441498 (retired record) | 0.0689 | 0.022 | 0.563 | inactive |
| QTGAL (queuosine-tRNA galactosyltransferase) | -1.17 | 0.233 | -0.784 | inactive |
| AWAT1 (acyl-CoA wax alcohol acyltransferase 1) | 0.708 | 0.531 | 0.386 | inactive |
| KHK (ketohexokinase) | 1.04 | 1.14 | 1.97 | inactive |
| EIF4A1P7 (eukaryotic translation initiation factor 4A1 pseudogene 7) | 1.01 | 0.978 | 0.982 | inactive |
| MAP6 (microtubule associated protein 6) | 0.368 | -0.279 | -0.96 | inactive |
| RPL17 (ribosomal protein L17) | -1.82 | -2.07 | -1.29 | inactive |
| SRGAP1 (SLIT-ROBO Rho GTPase activating protein 1) | 1.92 | 4.37 | 4.31 | active |
| LOC402340 (retired record) | 1.79 | 0.49 | 2.05 | inactive |
| ZNF721 (zinc finger protein 721) | -1.81 | -0.885 | -0.949 | inactive |
| PLEKHB2 (pleckstrin homology domain containing B2) | -0.65 | -1.7 | 0.373 | inactive |
| SAE1 (SUMO1 activating enzyme subunit 1) | -1.67 | -1.67 | -1.29 | inactive |
| DENND4A (DENN domain containing 4A) | -1.97 | -1.29 | 0.938 | inactive |
| COQ4 (coenzyme Q4) | 0.0206 | -1.14 | 0.0724 | inactive |
| CRNKL1 (crooked neck pre-mRNA splicing factor 1) | -0.538 | 0.431 | 1.12 | inactive |
| GLB1L (galactosidase beta 1 like) | 1.31 | 0.527 | 0.494 | inactive |
| ZFP36L2 (ZFP36 like 2 zinc finger CCCH-type) | 0.867 | 0.855 | 0.902 | inactive |
| SPATA31D5P (SPATA31 subfamily D member 5, pseudogene) | 0.259 | 0.2 | -0.386 | inactive |
| DSC3 (desmocollin 3) | 0.0972 | -0.102 | 0.584 | inactive |
| DIDO1 (death inducer-obliterator 1) | 0.341 | 0.27 | 0.262 | inactive |
| NUP88 (nucleoporin 88) | -0.886 | -0.377 | -1.12 | inactive |
| LOC440186 (retired record) | 1.51 | 1.07 | 1.28 | inactive |
| RPS7P3 (ribosomal protein S7 pseudogene 3) | 1.14 | 0.54 | 0.241 | inactive |
| BRIP1 (BRCA1 interacting DNA helicase 1) | 2.83 | 4.02 | 3.81 | active |
| TRPV6 | 0.0691 | -0.286 | -0.148 | inactive |
| LOC389150 (retired record) | -0.788 | -1.01 | -1.24 | inactive |
| OR10G8 (olfactory receptor family 10 subfamily G member 8) | -0.911 | -1.1 | -0.879 | inactive |
| ARMC7 (armadillo repeat containing 7) | -1.33 | -1.39 | -1.38 | inactive |
| EIF3FP2 | -1.56 | -1.35 | -1.46 | inactive |
| EPHB3 (EPH receptor B3) | -0.194 | -0.0444 | -0.365 | inactive |
| TRRAP (transformation/transcription domain associated protein) | -1.96 | -1.26 | -2.22 | active |
| MSL3 (MSL complex subunit 3) | -0.0346 | 0.562 | 0.434 | inactive |
| INTS6 (integrator complex subunit 6) | 0.503 | 0.383 | 0.574 | inactive |
| LOC402300 (retired record) | -0.914 | -0.091 | -0.407 | inactive |
| LOC440928 (retired record) | 0.393 | -0.203 | 0.147 | inactive |
| UGT2B7 (UDP glucuronosyltransferase family 2 member B7) | 0.173 | 0.106 | 0.293 | inactive |
| GUCA2B (guanylate cyclase activator 2B) | -0.0879 | 1.61 | -0.395 | inactive |
| KLK13 (kallikrein related peptidase 13) | 0.473 | 0.87 | 0.748 | inactive |
| CHMP4A (charged multivesicular body protein 4A) | 0.439 | -0.788 | -0.476 | inactive |
| DAB1 (DAB adaptor protein 1) | 0.975 | 0.0562 | 0.1 | inactive |
| HLA-DPA1 (major histocompatibility complex, class II, DP alpha 1) | -0.559 | 0.276 | -0.506 | inactive |
| TRIM52 (tripartite motif containing 52) | -1.43 | -0.875 | -0.21 | inactive |
| ABL2 (ABL proto-oncogene 2, non-receptor tyrosine kinase) | 4.18 | 2.59 | 4.17 | active |
| HOXC9 (homeobox C9) | -1.44 | -1.62 | -1.35 | inactive |
| YTHDC1 (YTH N6-methyladenosine RNA binding protein C1) | -0.391 | -0.341 | -0.674 | inactive |

An excerpt from above, reduced to “robust z-score, replicate 1”:
LOC389031 (retired record)	-1.67
SIGLEC8 (sialic acid binding Ig like lectin 8)	-1.05
THAP3 (THAP domain containing 3)	0.199
LOC441498 (retired record)	0.0689
QTGAL (queuosine-tRNA galactosyltransferase)	-1.17
AWAT1 (acyl-CoA wax alcohol acyltransferase 1)	0.708
KHK (ketohexokinase)	1.04
EIF4A1P7 (eukaryotic translation initiation factor 4A1 pseudogene 7)	1.01
MAP6 (microtubule associated protein 6)	0.368
